In US20080008651A1, “Screening Methods and Transgenic Animals for the Treatment of Beta-Globin Related Disease and Conditions” (THE REGENTS OF THE UNIVERSITY OF MICHIGAN, published 2008):
Results from cells or extracts need not show a direct contact. For some assays here: The comparison behind a weaker result is the experiment's own reference, which may not be listed here. For some assays here: Where a protein sequence is shown, tags need not be part of it. For some assays here: For at least one entry, the source does not settle the construct or the ends of the probe. For some assays here: No signal at the amounts used counts as a negative.

Assays:
Test in all cases: EMSA
[1] = system: TR2 coexpressed with dnTR4 dnTR4 chain: three Lys/Arg to Glu in DNA binding domain (Mus musculus); conditions: TR2 binding abolished by coexpressed dnTR4; protein in a lysate after overexpression; protein details: coexpressed in 293T, nuclear extract; label: 32P (probe)
[2] = system: TR2/TR4 heterodimer (Mus musculus); conditions: most intense signal; heterodimer > TR4 homodimer >> TR2 homodimer; protein in a lysate after overexpression; label: 32P (probe)
TR4 (Mus musculus) = molecular target: T1, TR4 (Mus musculus) (UniProt P49117); conditions: robust complex; protein in a lysate after overexpression; label: 32P (probe)
T1 sequence (looked up, limits assumed): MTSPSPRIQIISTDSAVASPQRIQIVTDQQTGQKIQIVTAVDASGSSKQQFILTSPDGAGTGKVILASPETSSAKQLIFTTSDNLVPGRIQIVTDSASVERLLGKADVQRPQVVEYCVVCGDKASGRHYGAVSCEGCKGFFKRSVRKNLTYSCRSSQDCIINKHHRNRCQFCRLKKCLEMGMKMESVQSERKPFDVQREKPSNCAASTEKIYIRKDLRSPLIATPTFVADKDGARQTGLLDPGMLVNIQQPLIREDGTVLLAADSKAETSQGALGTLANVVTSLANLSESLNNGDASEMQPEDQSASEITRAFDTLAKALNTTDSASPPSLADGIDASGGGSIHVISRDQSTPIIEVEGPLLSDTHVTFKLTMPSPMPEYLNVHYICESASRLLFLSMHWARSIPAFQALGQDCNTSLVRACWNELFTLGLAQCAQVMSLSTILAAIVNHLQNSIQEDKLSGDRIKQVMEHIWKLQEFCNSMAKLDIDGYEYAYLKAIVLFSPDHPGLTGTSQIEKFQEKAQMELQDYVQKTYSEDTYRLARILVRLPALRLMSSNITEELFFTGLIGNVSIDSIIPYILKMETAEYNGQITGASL

[3] = system: TR2 coexpressed with dnTR2 dnTR2 chain: three Lys/Arg to Glu in DNA binding domain (Mus musculus); conditions: TR2 binding not affected by dnTR2; protein in a lysate after overexpression; protein details: coexpressed in 293T, nuclear extract; label: 32P (probe)
TR2 (Mus musculus) = molecular target: T2, TR2 (Mus musculus) (UniProt Q505F1); conditions: weak signal; protein in a lysate after overexpression; label: 32P (probe)
T2 sequence (looked up, limits assumed): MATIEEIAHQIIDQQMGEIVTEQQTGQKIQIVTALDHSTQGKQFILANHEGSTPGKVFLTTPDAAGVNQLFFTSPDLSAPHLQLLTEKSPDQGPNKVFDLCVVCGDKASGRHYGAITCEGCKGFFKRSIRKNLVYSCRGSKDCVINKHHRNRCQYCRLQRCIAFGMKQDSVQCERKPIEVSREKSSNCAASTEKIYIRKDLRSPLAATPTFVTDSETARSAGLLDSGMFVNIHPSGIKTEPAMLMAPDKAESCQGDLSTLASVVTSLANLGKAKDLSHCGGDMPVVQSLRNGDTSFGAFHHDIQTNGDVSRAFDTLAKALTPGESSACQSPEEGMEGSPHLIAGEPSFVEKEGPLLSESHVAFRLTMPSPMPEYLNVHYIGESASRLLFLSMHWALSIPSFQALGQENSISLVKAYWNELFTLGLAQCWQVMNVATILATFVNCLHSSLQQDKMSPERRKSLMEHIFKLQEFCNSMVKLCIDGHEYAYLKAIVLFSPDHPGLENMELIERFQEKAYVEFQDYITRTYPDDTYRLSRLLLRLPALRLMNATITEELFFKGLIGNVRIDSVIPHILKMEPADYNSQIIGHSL

**Q.** Does “CCCTGAGGACACAGGTCAGCCTTG (double strand) [epsilon distal DR]” bind [1]?
**A.** no binding

**Q.** Does “CCCTGAGGACACAGGTCAGCCTTG (double strand) [epsilon distal DR]” bind [2]?
**A.** binds

**Q.** Does “CCCTGAGGACACAGGTCAGCCTTG (double strand) [epsilon distal DR]” bind (TR4 (Mus musculus))?
**A.** binds

**Q.** Does “CCCTGAGGACACAGGTCAGCCTTG (double strand) [epsilon distal DR]” bind [3]?
**A.** binds

**Q.** Does “CCCTGAGGACACAGGTCAGCCTTG (double strand) [epsilon distal DR]” bind (TR2 (Mus musculus))?
**A.** binds more weakly
